Test results reported in patent US20160015828A1 (AbbVie / Abbott, published 2016).
Results are given in words; binding and its absence hold for the method and conditions named. Some results given as binding are weak or reduced against the parent protein; the word gives no strength.

Chains of the proteins cited; added tags and fusions are not shown. Lines headed by an entry give the natural chain unless they say otherwise; changes in a name come on top.
UniProt Q9NYJ7: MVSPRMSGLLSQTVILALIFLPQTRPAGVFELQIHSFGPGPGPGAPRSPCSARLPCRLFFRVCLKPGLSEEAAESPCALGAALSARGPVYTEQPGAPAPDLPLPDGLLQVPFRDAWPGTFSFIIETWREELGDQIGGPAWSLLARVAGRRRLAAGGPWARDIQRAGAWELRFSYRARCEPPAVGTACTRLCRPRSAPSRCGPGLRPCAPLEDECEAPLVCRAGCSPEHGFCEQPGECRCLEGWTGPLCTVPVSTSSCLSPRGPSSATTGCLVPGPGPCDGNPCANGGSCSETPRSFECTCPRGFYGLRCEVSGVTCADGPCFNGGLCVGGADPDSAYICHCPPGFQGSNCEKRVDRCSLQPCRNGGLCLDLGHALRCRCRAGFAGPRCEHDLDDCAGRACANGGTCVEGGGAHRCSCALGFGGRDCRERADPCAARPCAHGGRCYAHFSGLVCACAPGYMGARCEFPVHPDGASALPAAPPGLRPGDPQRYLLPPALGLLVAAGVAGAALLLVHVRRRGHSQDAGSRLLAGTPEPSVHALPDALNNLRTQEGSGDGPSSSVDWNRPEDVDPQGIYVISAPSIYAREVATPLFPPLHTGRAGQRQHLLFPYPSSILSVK

target: DLL3 (UniProt Q9NYJ7); test: screening on immobilized DLL3 or 293-hDLL3 cells

binding | Binder
binds | SC16.123 (antibody, V domains shown) VH: QVALKESGPGILQPSQTLSLTCSFSGFSLSTSGMGVGWIRQPSGKGLEWLAHIWWDDVKRYNPALKSRLTISKDTSSSQVFLKIASVDTADTATYYCARMEDYGSSSYFDFWGHGTTLTVSS VL: QIVLTQSPAIMSASLGERVTMTCTASSSVSSSYLHWYQQKPGSSPKLWIYSTSNLASGVPARFSGSGSGTSYSLTISSMETEDAATYYCHQYHRSPFTFGSGTKLEIK
binds | SC16.109 (antibody, V domains shown) VL: QIVLTQSPAIMSASPGEKVTMTCSASSSVSYMYWYQQKPGSSPRLLIYDTSNLASGVPVRFSGSGSGTSFSLTISRMEAEDTATYYCQEWSGNPLTFGDGTKLELK V domain: QIQLVQSGPELKKPGETVKISCKASGYTFTNYGMNWVKQAPGKGLKWMGWINTYTGEPAYADDFKGRFAFSLETSASAAYLQINNLKNEDTATFFCANMRPTRGFAYWGQGTLGTVSA
binds | SC16.140 (antibody, V domains shown) VH: QVQLQQSGPELVRPGASVKMSCKASGYTFTSYWMHWVKQRPGQGLEWIGMIDPSNSETRLNQKFKDKATLNVDKSSNTAYMQLSSLTSEDSAVYYCAVMDYYFDYWGQGTTLTVSS VL: DIVLTQSLASLAVSLGQRATISCRASKSVSTSGYSYMHWYQQKPGQPPKLLIYLASNLESGVPARFSGSGSGTDFTLNIHPVEDEDAATYYCQHSRELPFTFGGGTKLEIK
binds | SC16.126 (antibody, V domains shown) VH: QVQMKESGPGLVAPSQSLSITCTVSGSSLTNYGVHWVRQPPGKGLEWLGVIWAGGSTNYNSALMSRLSISKDNSKSQVFLKMNSLQTDDTAMYYCARDWEGWFAYWGQGTLVTVSA VL: DIQMNQSPSSLSASLGDTITITCHASQNINVWLSWYQQKPGNIPKLLIYKASNLHTGVPSRFSGSGSGTGFTLTISSLQPEDIATYYCQQGQSYPFTFGSGTKLEIK
binds | SC16.116 (antibody, V domains shown) VH: QVQLKQSGPGRVQPSQSLSITCTVSGFSLTSNGVHWVRQSPGKGLEWLGVLWSGGSTDYNAAFISRLSISKDNYKSQVFFKMNSLQANDTAIYYCARNNNRYGAMDYWGQGTSVTVSS VL: DIVMTQSPSSLTVTAGEKVTMSCTSSQSLLTSGNQKNYLTWYQQKPGQPPKLLIYWASTRESGVPDRFTGSGSGTDFTLTISSLQAEDLAVYYCQNDYSLTFGAGTKLELK
binds | SC16.135 (antibody, V domains shown) VH: QVQLQQSGAELVRPGTSVKVSCKASGYAFTNYLIEWVKQRPGQGLEWIGVINPGSGGTNSNEKFKAKATLTADKSSSTAYMQLSSLTSADSAVYFCARSDYDYAFYAMDYWGQGTSVTVSS VL: DIKMTQSPSSMYASLGERVTITCKASQDINRYLSWFQQKPGKSPKTLIYRANRLVDGVPSRFSGSGSGQDYSLTISSLEYEDMGIYYCLQYDEFPFTFGSGTKLEIK
binds | SC16.141 (antibody, V domains shown) VH: QVQLKQSGPGLVAPSQSLFITCTVSGFSLTSYEINWVRQPPGKGLEWLGVIWTGGSTNYNSALISRLSISKDNSKSLVFLKMNSLQTDDTAIYYCVRGVYAMDYWGQGTSVTVSS VL: DIKMTQSPSSMYASLGERVTITCKASQDINSYLSWFQQKPGKSPKTLIYRANRLVDGVPSRFSGSGSGQDYSLTISSLEYEDMGIYYCLQYDEFPFTFGSGTKLEIK
binds | SC16.130 (antibody, V domains shown) VH: EVQLQQSGPELVKPGASVKMSCKASGYTFTSYVMHWVKQKPGQGLEWIGYINPYNDGTEYNEKFKGKATLTSDKSSSTAYMELSSLTSEDSAVYYCARGVYDGYSYFDYWGQGTTLTVSS VL: DIQLTQSPASLSASVGETVTITCRASGSIHNYLAWYQQKQGKSPQLLVYNAKTLVDGVPSRFSGSGSGTQYSLKINSLQPEDFGYYYCQHFWTTPWTFGGGTKLEIK
binds | SC16.110 (antibody, V domains shown) VH: EVQLQQSGPGLVRTGASVKISCKASGYSFTGYYMHWVKQSHGKSLEWIGYISCYNGATTYNQNFKGKATFIVDTSSSTAYMQFNSLTSEDSAVYYCARSDGGHAMDYWGQGTSVTVSS VL: NIVMTQTPKFLLVSAGDRVTITCKASQSVSNDVAWYQQKPGQSPKLLIYYASNRYTGVPDRFTGSGYGTDFTFTISTVQAEDLAVYFCQQDYSSPPTFGGGTKLEIK
binds | SC16.144 (antibody, V domains shown) VH: QIQLVQSGPELKKPGETVKISCKASGYTFTNYGMNWVKQAPGKGLKWVGWINTYTGEPTYADDFKGRFAFSLETSASTAYLQIDNLKNEDTATYFCARVGDYVGFDYWGQGTTLTVSS VL: SIVMTQTPKFLLVSAGDRVTITCKASQSVSNDVGWYQQKPGQSPKLLIYYASNRYNGVPDRFTGSGYGTDFTFTISTVQAEDLAVYFCQQDYSSPWTFGGGTKLEIK
binds | SC16.133 (antibody, V domains shown) VH: QVQLKESGPGLVAPSQSLSITCTVSGFSLTNYAVHWVRQSPGKGLEWLGVIWSDGSTDYNAAFISRLSISKDNSKSQVFFKMNSLQADDTAMYYCARKKGGWFPWFAYWGQGTLVTVSA VL: SIVMTQTPKFLLVSAGDRVTITCKASQSVSNDVAWYQQKPGQSPKLLIYCASNRYTGVPDRFTGSGYGTDFTFTISTVQAEDLAVYFCQQDYSSPLTFGAGTKLELK
binds | SC16.121 (antibody, V domains shown) VH: EVQLVESGGGLVQPKGSLKLSCAASGFTFNTYAMNWVRQAPGKGLEWVARIRIKSNNYATYYADSVKDRFTISRDDSQNMLYLQMNNLKTEDTAVYYCVRQGYSYDWGPWFAYWGQGTLVTVSA VL: QIVLTQSPAIMSASPGEKVTITCSASSSVSYMHWFQQKPGTSPKLWIYSTSNLASGVPARFSGSGSGTSYSLTISRMEAEDAATYYCQQRSSYPPTFGGGTKLEIK
binds | SC16.143 (antibody, V domains shown) VH: QVQLQQSGPELVKPGASVRISCKASGYTFTSYYIHWVKQRPGQGLEWIGWIYPGNGNTKYNEKFKGKATLTADKSSSTAYMQISSLTSEDSAVYFCARERWLLLWFAYWGQGTLVTVSA VL: DVLMTQTPLSLPVSLGDQASISCRSSQSIVHSNGNTYLEWYLQKPGQSPKLLIYKVSNRFSGVPDRFSGSGSGTDFTLKISRVEAEDLGVYYCFQGSHVPLTFGAGTKLELK
binds | SC16.107 (antibody, V domains shown) VH: EVQLQQSGPELVKPGASVKMSCKASGYTFTNYVMHWVKQKPGQGLEWIGYINPYNDGTKYNEKFKGKATLTSDKSSTTAYMALSSLTSEDSAVYYCAVAYYSNWGFAYWGQGTLVTVSA VL: DIVMTQSHKFMSTSVGDRVSITCKASQDVNTAVGWYQQKPGQSPKLLIYSASYRYTGVPDRFTGSGSGTDFTFTISSVQAEDLAVYYCQQHYSSPYTFGGGTKVEIK
binds | SC16.139 (antibody, V domains shown) VH: EVQLQQSGPELVKPGASVKMSCKASGYTFTNYVMHWVKQKPGQGLEWIGYINPYNDGTKYNEKFKGKATLTSDKSSTTAYMALSSLTSEDSAVYYCAVAYYSNWGFAYWGQGTLVTVSA VL: DIVMTQSHKFMSTSVGDRVSITCKASQDVNTAVGWYQQKPGQSPKLLIYSASYRYTGVPDRFTGSGSGTDFTFTISSVQAEDLAVYYCQQHYSSPYTFGGGTKLEIK
binds | SC16.147 (antibody, V domains shown) VH: QIQLVQSGPELTKPGETVKISCKASGYTFTDYSLHWVKQALGKGLKWMGWINTETGEPAYADDFKGRFAFSLETSASTAYLQINDLKNEDTTTYFCGIYDGYAMDYWGQGTSVTVSS VL: DIQMTQTASSLSASLGDRVTISCRASQDINNYLNWYQQKPDGTVKLLIYYTSRLHSGVPSRFSGSGSGTDYSLTISILEQEDIATYFCQQGDTLPWTFGGGTKLEIK
binds | SC16.111 (antibody, V domains shown) VH: EVQLQQSGPELEKPGASVKISCKASGYSFTGYNMNWVKQSNGKSLEWIGNIDPYYGGSSYKQKFEGKATLTVDKSSSTAYMQLKSLTSEDSAVYYCARGGSNFFDYWGQGTTLTVSS VL: DIQMTQSPASLAASVGETVTITCRASENIYYSLAWYQQKQGKSPQLLIYNANSLEDGVPSRFSGSGSGTQYSMKINSMQPEDTATYFCKQTYDVPLTFGAGTKLELK
binds | SC16.114 (antibody, V domains shown) VH: EVQLQQSGAELVKPGASVKLSCTASGFNIKDTYIHWVKQRPEQGLEWIGRIDPANGNTKYDPKFQGKATITPDTSSNTAYLQLSSLTSEDTAVYYCARSWRNYGSSFWYFDVWGAGTTVTVSS VL: QIVLSQSPAILSASPGEKVTMTCRASSSVSYMHWYQQKPGSSPKPWIYATSNLASGVPARFSGSGSGTSYSLTISRVEAEDAATYYCQQWSSNPYTFGGGTKLEIK
binds | SC16.137 (antibody, V domains shown) VH: EVQLVESGGDLVKPGGSLKLSCAASGFTFSSYGMSWVRQTPDKRLEWVATISSGGSYTYYPDSVKGRFTISRDNAKNTLYLQMSSLKSEDTAMYYCARRRADAMDYWGQGTSVTVSS VL: QIVLTQSPAIMSASLGEEITLTCSASSSVSYMHWYQQKSGTSPKLLIYSTSNLASGVPSRFSGSGSGTFYSLTISSVEAEDAADYYCHQWSSYHTFGGGTKLEIKR
binds | SC16.124 (antibody, V domains shown) VH: EVQLQQSGPELVKPGASVKMSCKASGYTFTSYVMHWVKQKPGQGLEWIGYINPYNDGTKYNEKFKGKATLTSDKSSSTAYMELSSLTSEDSAVYYCARGALYYGNYLGYFDVWGAGTTVTVSS VL: DIQMTQSPASQSASLGESVTITCLASQTIGTWLAWYQQKPGKSPQLLISAATSLADGVPSRFSGSGSGTKFSFKISSLQAEDFVSYYCQQLYSTPWTFGGGTKLEIK
binds | SC16.138 (antibody, V domains shown) VH: QVQLKESGPGLVAPSQSLSITCTVSGFSLTDYGVSWIRQPPGKGLEWLGVVWGGGSTYYNSALKSRLSISKDNSKSQVFLKMNSLQTDDTAMYYCAKQRGQYGAYWGQGTLVTVSA VL: DIQMTQSPASQSASLGESVTITCLASQTIGTWLAWYQQKPGKSPQLLIYSATSLADGVPSRFSGSGSGTKFSFKISSLQAEDFVSYYCQQLYSTPWTFGGGTKLEIK
binds | SC16.132 (antibody, V domains shown) VH: QVQLKESGPGLVAPSQSLSITCTVSGFSLTDYGVSWIRQPPGKGLEWLGVVWGGGSTYYNSALKSRLSITKDNSKSQVFLKMNSLQTDDTAMYYCAKQRGQYGAYWGQGTLVTVSA VL: DIQMTQSPASQSASLGESVTITCLASQTIGTWLAWYQQKPGKSPQLLIYAATSLADGVPSRFSGSGSGTKFSFKISSLQAEDFVSYYCQQLYSTPWTFGGGTKLEIK
